Publication doi:10.1101/329136
Results are given in words; binding and its absence hold for the method and conditions named. Some binding calls cover weakened binding; strength is not graded here.

Sequences of proteins named here, by UniProt entry; tags and fusion partners are left off. Residues count along the entry.
IpaA 483-633 containing all three VBS1-3 (A483) (P18010, residues 483-633): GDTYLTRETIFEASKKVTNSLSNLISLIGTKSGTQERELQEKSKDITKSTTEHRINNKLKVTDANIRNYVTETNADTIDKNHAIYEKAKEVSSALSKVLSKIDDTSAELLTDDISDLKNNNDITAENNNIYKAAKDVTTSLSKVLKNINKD
IpaA 524-633 containing only IpaA VBS1-2 (A524) (P18010, residues 524-633): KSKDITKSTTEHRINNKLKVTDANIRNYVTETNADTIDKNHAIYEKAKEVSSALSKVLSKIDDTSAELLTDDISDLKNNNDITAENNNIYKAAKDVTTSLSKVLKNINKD
UniProt P18206, residues 1-258: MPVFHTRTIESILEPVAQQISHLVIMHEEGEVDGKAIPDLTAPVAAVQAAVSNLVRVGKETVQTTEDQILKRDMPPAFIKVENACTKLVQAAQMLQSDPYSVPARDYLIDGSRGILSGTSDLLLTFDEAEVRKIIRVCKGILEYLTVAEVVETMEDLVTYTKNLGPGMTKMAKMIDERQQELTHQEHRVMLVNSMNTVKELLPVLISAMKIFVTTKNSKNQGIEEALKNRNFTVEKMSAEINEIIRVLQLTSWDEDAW

Legend:
[1] = molecular target: IpaA 483-633 containing all three VBS1-3 (A483) (Shigella flexneri) (UniProt P18010); experiment: SEC-MALS
[2] = molecular target: IpaA 524-633 containing only IpaA VBS1-2 (A524) (Shigella flexneri) (UniProt P18010); experiment: SEC-MALS
vinculin D1 domain (vD1) = vinculin D1 domain (vD1) (UniProt P18206); experiment: native gel or EMSA

| Molecule | binding (vinculin D1 domain (vD1)) | further results |
| --- | --- | --- |
| IpaA 483-633 containing all three VBS1-3 (A483) (from UniProt P18010 483-633) (domain or fragment) |  | binding [1]: no binding (tested: 20 μM) |
| IpaA 524-633 containing only IpaA VBS1-2 (A524) (from UniProt P18010 524-633) (domain or fragment) |  | binding [2]: no binding (tested: 20 μM) |
| TRETIFEKSKKVTNSLSNLISLIGT [IpaA VTBS A495K peptide] | binds |  |
| TRETIFEASKKVTNSLSNLISLIGT [IpaA VTBS peptide (488-512)] | binds |  |
| TRETIFEASKEVTNSLSNLISLIGT [IpaA VTBS K498E peptide] | binds |  |
